Assay results from PubChem BioAssay AID493240 (Broad Institute, 2011).
The campaign covered roughly 1,300 compounds. About 270 (21%) were called active. How the calls were made is not given here. This is a selection; strong and weak results do not stand in their true shares. Results with a measured potency or affinity are listed apart.

Experiment: cytotoxicity in parental SK-MEL-5 melanoma cells – cell-based, CellTiter-Glo, cherry-picked, set 3, orthogonal assay for MITF inhibitor project, dose response (AID 493240)
Conditions: SK-MEL-5 viability, ATP luminescence (CellTiter-Glo), 24 h; at 35 µM (top of the series)

Q: With `O=c1[nH]c(=S)[nH]c(O)c1N=Nc1ccc(S(=O)(=O)N2CCc3ccccc32)cc1` as the molecule, how does the activity change, negative = viability loss read?
A: The activity change, negative = viability loss was inactive: -7.59%.

Q: With `Cc1ccc(N2C(=O)NC(=O)/C(=C\C=C\c3ccco3)C2=O)cc1` as the molecule, how does the activity change, negative = viability loss read?
A: The activity change, negative = viability loss was inactive: -10.9%.

Q: For `Cc1cccc(N2C(=O)NC(=O)/C(=C\C=C\c3ccco3)C2=O)c1`, which activity change, negative = viability loss is on record?
A: The activity change, negative = viability loss was inactive: -26.4%.

Q: For `COc1cc2c(cc1/C=C/[N+](=O)[O-])OCO2`, which activity change, negative = viability loss is on record?
A: The activity change, negative = viability loss was inactive: -28.2%.

Q: For `NCCc1ccc(OCc2ccccc2)c(OCc2ccccc2)c1`, which activity change, negative = viability loss is on record?
A: Its activity change, negative = viability loss is inactive: -18.1%.

Q: For `Cc1cc(C(=O)Nc2ccc3c(c2)OCCO3)nn1C(C)(C)C`, which activity change, negative = viability loss is on record?
A: Its activity change, negative = viability loss is inactive: -3.41%.

Q: For `O=C1NC(=O)N(Cc2ccccc2)C(=O)/C1=C\C=C\c1ccco1`, which activity change, negative = viability loss is on record?
A: Its activity change, negative = viability loss is inactive: 9.96%.

Q: For `Cc1cc(C(=O)Nc2ccccc2)nn1C(C)(C)C`, which activity change, negative = viability loss is on record?
A: The activity change, negative = viability loss was inactive: -1.13%.

Q: Which activity change, negative = viability loss does the source give for `CN1C(=O)/C(=C/c2cccn2-c2ccc3ccccc3c2)C(=O)NC1=S` here?
A: The activity change, negative = viability loss was inactive: -24%.

Q: Which activity change, negative = viability loss does the source give for `O=C1NC(=O)N(Cc2ccc(F)cc2)C(=O)/C1=C\C=C\c1ccco1` here?
A: Its activity change, negative = viability loss is inactive: -4.63%.

Q: For `CC(C)c1ccc(N2C(=O)NC(=O)/C(=C/C=C/c3ccco3)C2=O)cc1`, which activity change, negative = viability loss is on record?
A: Its activity change, negative = viability loss is inactive: -15.1%.

Q: For `O=C1NC(=O)N(Cc2ccccc2Cl)C(=O)/C1=C/c1cccs1`, which activity change, negative = viability loss is on record?
A: Its activity change, negative = viability loss is inactive: -26.9%.

Q: For `O=C1NC(=O)N(c2ccccc2)C(=O)/C1=C/C=C/c1ccco1`, which activity change, negative = viability loss is on record?
A: Its activity change, negative = viability loss is inactive: -5.93%.

Q: For `O=C1NC(=O)N(Cc2ccccc2)C(=O)/C1=C/C=C/c1ccco1`, which activity change, negative = viability loss is on record?
A: The activity change, negative = viability loss was inactive: -11%.

Q: For `Cc1cc(C)cc(N2C(=O)NC(=O)/C(=C\C=C\c3ccco3)C2=O)c1`, which activity change, negative = viability loss is on record?
A: Its activity change, negative = viability loss is inactive: -2.99%.

Q: With `CC(C)c1oc(=O)cc2c1[C@@H](O)[C@H]1OC(=O)[C@@]3(C)C[C@@H](O)[C@@H](O)[C@@]2(C)C13` (stereo not given in full) as the molecule, how does the activity change, negative = viability loss read?
A: The activity change, negative = viability loss was inactive: -1.59%.

Q: With `Cc1cccc(N2C(=O)NC(=O)/C(=C\c3cccn3-c3ccc(Cl)cc3)C2=O)c1` as the molecule, how does the activity change, negative = viability loss read?
A: Its activity change, negative = viability loss is inactive: -29%.

Q: For `CCCCCCn1c(=O)c(C(=O)Nc2cnccn2)c(O)c2ccccc21`, which activity change, negative = viability loss is on record?
A: The activity change, negative = viability loss was inactive: -6.16%.

Q: For `Cc1ccc(N2C(=O)NC(=O)/C(=C/C=C/c3ccco3)C2=O)cc1`, which activity change, negative = viability loss is on record?
A: Its activity change, negative = viability loss is inactive: -9.54%.

Q: Which activity change, negative = viability loss does the source give for `O=C1NC(=S)NC(=O)C1=Cc1cccn1-c1ccc(O)cc1` here?
A: The activity change, negative = viability loss was inactive: -31.5%.

Q: Which activity change, negative = viability loss does the source give for `CC(C)N1C(=O)/C(=C/C=C/c2ccco2)C(=O)N(Cc2ccco2)C1=O` here?
A: Its activity change, negative = viability loss is inactive: -9.65%.

Q: With `C/C(=C\c1ccc(N(C)C)cc1)[N+](=O)[O-]` as the molecule, how does the activity change, negative = viability loss read?
A: The activity change, negative = viability loss was inactive: -28.8%.

Q: With `NC(Cc1nc2ccccc2[nH]1)c1ccc(Cl)cc1` (stereo not given) as the molecule, how does the activity change, negative = viability loss read?
A: The activity change, negative = viability loss was inactive: -5.43%.

Q: With `O=C(c1ccccc1)C(CN1CCCC1)c1ccccc1` (stereo not given) as the molecule, how does the activity change, negative = viability loss read?
A: Its activity change, negative = viability loss is inactive: -38%.

Q: Which activity change, negative = viability loss does the source give for `Cc1ccc(-c2cc(-c3ccc(C)cc3)[n+](C)o2)cc1` here?
A: Its activity change, negative = viability loss is inactive: -46.6%.

Q: Which activity change, negative = viability loss does the source give for `O=C1NC(=O)C(=Cc2ccc(-c3ccc(Cl)cc3)o2)C(=O)N1` here?
A: The activity change, negative = viability loss was inactive: -5.27%.

Q: Which activity change, negative = viability loss does the source give for `O=C1NC(=S)NC(=O)C1=Cc1cccc2cc3ccccc3cc12` here?
A: The activity change, negative = viability loss was inactive: -29.5%.

Q: For `Cc1cc(C)cc(N2C(=O)NC(=O)/C(=C\c3cccn3-c3ccccc3)C2=O)c1`, which activity change, negative = viability loss is on record?
A: Its activity change, negative = viability loss is inactive: -35.4%.

Q: With `C=CCN1C(=O)NC(=O)/C(=C/C=C/c2ccccc2)C1=O` as the molecule, how does the activity change, negative = viability loss read?
A: Its activity change, negative = viability loss is inactive: -12%.

Q: Which activity change, negative = viability loss does the source give for `CCOC(=O)c1c(-n2c(C)cc(C=C3C(=O)NC(=S)NC3=O)c2C)sc2c1CCCC2` here?
A: Its activity change, negative = viability loss is inactive: -21.6%.

Q: Which activity change, negative = viability loss does the source give for `CCCCCn1c(=O)c(C(=O)Nc2cnccn2)c(O)c2ccccc21` here?
A: The activity change, negative = viability loss was inactive: -13.2%.

Q: For `O=C(Nc1ccc(OC(=O)N2CCCCC2)cc1)N1CCOCC1`, which activity change, negative = viability loss is on record?
A: The activity change, negative = viability loss was inactive: -2.34%.

Q: For `C=CCN1C(=O)/C(=C/c2cc(C)n(-c3cccnc3)c2C)C(=O)NC1=S`, which activity change, negative = viability loss is on record?
A: The activity change, negative = viability loss was inactive: -14.5%.

Q: For `O=C1NC(=O)C(=Cc2ccc(-c3cc(Cl)ccc3[N+](=O)[O-])o2)C(=O)N1`, which activity change, negative = viability loss is on record?
A: The activity change, negative = viability loss was inactive: -10.4%.

Q: For `CCOc1ccc(-c2cc(C)[n+](CCO)c(-c3ccc(OCC)cc3)c2)cc1`, which activity change, negative = viability loss is on record?
A: The activity change, negative = viability loss was inactive: -23.6%.

Q: With `CCc1ccc(N2C(=O)NC(=O)/C(=C\C=C\c3ccco3)C2=O)cc1` as the molecule, how does the activity change, negative = viability loss read?
A: The activity change, negative = viability loss was inactive: -9.95%.

Q: For `CC(C)n1c(O)c(C2c3cc(Cl)ccc3Oc3[nH]c(=O)n(C(C)C)c(=O)c32)c(=O)[nH]c1=O` (stereo not given), which activity change, negative = viability loss is on record?
A: The activity change, negative = viability loss was inactive: 16.1%.

Q: With `CN(C)c1ccc(/C=C2/C(=N\O)C3CCN2CC3)cc1` as the molecule, how does the activity change, negative = viability loss read?
A: The activity change, negative = viability loss was inactive: 1.02%.

Q: For `O=C1NC(=O)N(CCc2ccc(F)cc2)C(=O)/C1=C\C=C\c1ccccc1`, which activity change, negative = viability loss is on record?
A: The activity change, negative = viability loss was inactive: 38.4%.

Q: With `CCOC(=O)Cn1cc([N+](=O)[O-])nc1[N+](=O)[O-]` as the molecule, how does the activity change, negative = viability loss read?
A: Its activity change, negative = viability loss is inactive: 1.04%.
